From article PMC11317454
These are yes or no findings as the source states them, for the method shown. Binding seen in cells or lysates may run through a third protein. Some binding calls cover weakened binding; strength is not graded here.

By UniProt entry, the sequences of proteins in these tests, tags left out.
UniProt Q92794: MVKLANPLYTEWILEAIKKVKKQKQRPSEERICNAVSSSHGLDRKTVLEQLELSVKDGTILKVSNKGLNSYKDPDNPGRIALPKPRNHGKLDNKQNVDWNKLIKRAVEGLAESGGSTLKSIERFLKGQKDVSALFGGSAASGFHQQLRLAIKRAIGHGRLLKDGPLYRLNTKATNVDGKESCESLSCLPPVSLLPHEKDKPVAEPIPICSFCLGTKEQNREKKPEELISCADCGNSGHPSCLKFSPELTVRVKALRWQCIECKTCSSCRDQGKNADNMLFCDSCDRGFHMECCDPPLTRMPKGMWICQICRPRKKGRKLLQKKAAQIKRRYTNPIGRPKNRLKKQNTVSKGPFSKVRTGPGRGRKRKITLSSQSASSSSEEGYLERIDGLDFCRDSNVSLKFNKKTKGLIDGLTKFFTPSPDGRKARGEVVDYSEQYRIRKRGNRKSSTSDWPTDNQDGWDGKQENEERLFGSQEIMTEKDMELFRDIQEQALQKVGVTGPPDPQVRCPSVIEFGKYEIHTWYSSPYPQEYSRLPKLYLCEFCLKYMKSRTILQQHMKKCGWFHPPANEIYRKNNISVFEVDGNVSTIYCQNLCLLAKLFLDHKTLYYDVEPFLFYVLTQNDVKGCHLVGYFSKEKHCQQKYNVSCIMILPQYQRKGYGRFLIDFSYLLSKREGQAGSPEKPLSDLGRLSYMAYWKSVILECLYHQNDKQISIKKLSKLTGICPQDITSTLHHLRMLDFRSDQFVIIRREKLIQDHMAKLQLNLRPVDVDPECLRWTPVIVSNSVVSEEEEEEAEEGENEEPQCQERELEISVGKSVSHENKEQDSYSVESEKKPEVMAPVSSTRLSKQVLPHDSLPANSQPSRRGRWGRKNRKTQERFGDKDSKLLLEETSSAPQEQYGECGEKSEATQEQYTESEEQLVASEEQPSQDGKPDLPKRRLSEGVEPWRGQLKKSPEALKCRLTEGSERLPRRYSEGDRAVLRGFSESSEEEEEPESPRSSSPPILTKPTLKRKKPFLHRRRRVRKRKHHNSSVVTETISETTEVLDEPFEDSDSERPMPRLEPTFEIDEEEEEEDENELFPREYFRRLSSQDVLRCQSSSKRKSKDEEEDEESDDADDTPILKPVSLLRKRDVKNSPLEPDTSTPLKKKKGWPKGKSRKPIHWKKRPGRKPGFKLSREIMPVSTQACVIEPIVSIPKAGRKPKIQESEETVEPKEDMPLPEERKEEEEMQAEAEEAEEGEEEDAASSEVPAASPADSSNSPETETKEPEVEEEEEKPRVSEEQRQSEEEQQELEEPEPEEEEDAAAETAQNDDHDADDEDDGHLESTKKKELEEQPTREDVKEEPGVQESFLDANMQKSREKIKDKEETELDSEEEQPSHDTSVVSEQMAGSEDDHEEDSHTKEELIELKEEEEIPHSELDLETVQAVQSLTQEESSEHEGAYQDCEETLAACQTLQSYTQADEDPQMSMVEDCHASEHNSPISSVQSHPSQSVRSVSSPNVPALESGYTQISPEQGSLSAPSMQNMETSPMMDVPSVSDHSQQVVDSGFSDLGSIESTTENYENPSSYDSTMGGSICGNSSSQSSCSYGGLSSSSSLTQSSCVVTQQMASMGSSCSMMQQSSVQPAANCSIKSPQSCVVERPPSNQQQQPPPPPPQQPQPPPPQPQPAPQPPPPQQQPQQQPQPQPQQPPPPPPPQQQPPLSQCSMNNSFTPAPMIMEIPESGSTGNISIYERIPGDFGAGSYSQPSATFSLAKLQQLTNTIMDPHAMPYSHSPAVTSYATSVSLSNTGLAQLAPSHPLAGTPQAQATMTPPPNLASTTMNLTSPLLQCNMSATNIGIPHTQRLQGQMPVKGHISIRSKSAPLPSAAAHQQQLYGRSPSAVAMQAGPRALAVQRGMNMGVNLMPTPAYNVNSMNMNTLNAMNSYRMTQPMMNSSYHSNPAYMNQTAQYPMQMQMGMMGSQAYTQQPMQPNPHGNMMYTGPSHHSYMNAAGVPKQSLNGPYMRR
UniProt P46937: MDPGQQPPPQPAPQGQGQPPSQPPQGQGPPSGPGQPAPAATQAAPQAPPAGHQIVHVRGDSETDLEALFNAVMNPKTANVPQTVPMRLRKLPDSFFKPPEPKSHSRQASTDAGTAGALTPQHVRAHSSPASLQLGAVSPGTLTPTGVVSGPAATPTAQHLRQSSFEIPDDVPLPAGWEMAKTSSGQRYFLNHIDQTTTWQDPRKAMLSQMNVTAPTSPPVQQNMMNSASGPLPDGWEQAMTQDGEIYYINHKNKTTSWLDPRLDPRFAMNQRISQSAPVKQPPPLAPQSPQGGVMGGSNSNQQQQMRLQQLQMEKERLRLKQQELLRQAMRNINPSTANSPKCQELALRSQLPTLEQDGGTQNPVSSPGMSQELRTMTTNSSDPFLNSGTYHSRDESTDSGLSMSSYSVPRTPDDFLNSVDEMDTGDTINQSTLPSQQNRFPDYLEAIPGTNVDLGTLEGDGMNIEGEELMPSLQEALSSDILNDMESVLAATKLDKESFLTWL

Molecular target: KAT6A (human (endogenous in PDLSCs)) (UniProt Q92794)
Experiment: co-IP; endogenous KAT6A and YAP in PDLSC lysate, protein A-Sepharose beads, overnight 4 °C, control IgG as negative control, western blot; also after mechanical force loading (binding increased)

YAP (from UniProt P46937 1-504)
binding: binds
